This is a noisy data set.

This data set deals with Sindbis virus TE/5'2J-GFP. As to the kind of experiment: percent infected (GFP+ in RFP+ ISG-expressing cells); higher = more infection (less antiviral activity). The conditions noted are these: experiment: primary screen (single well).

With “MVWKVAVFLSVALGIGAVPIDDPEDGGKHWVVIVAGSNGWYNYRHQADACHAYQIIHRNGIPDEQIVVMMYDDIAYSEDNPTPGIVINRPNGTDVYQGVPKDYTGEDVTPQNFLAVLRGDAEAVKGIGSGKVLKSGPQDHVFIYFTDHGSTGILVFPNEDLHVKDLNETIHYMYKHKMYRKMVFYIEACESGSMMNHLPDNINVYATTAANPRESSYACYYDEKRSTYLGDWYSVNWMEDSDVEDLTKETLHKQYHLVKSHTNTSHVMQYGNKTISTMKVMQFQGMKRKASSPVPLPPVTHLDLTPSPDVPLTIMKRKLMNTNDLEESRQLTEEIQRHLDARHLIEKSVRKIVSLLAASEAEVEQLLSERAPLTGHSCYPEALLHFRTHCFNWHSPTYEYALRHLYVLVNLCEKPYPLHRIKLSMDHVCLGHY [LGMN]”, the percent infected amounted to 87.4% (BHK/HA-Zeo (control)) and 92.2% (BHK/NZAP-Zeo (ZAP)).

As for “MELLCCEGTRHAPRAGPDPRLLGDQRVLQSLLRLEERYVPRASYFQCVQREIKPHMRKMLAYWMLEVCEEQRCEEEVFPLAMNYLDRYLSCVPTRKAQLQLLGAVCMLLASKLRETTPLTIEKLCIYTDHAVSPRQLRDWEVLVLGKLKWDLAAVIAHDFLAFILHRLSLPRDRQALVKKHAQTFLALCATDYTFAMYPPSMIATGSIGAAVQGLGACSMSGDELTELLAGITGTEVDCLRACQEQIEAALRESLREASQTSSSPAPKAPRGSSSQGPSQTSTPTDVTAIHL [CCND3]”, the percent infected is, setting by setting: (BHK/HA-Zeo (control)) 97.8%; (BHK/NZAP-Zeo (ZAP)) 94.9%.

In the case of “MALEIHMSDPMCLIENFNEQLKVNQEALEILSAITQPVVVVAIVGLYRTGKSYLMNKLAGKNKGFSVASTVQSHTKGIWIWCVPHPNWPNHTLVLLDTEGLGDVEKADNKNDIQIFALALLLSSTFVYNTVNKIDQGAIDLLHNVTELTDLLKARNSPDLDRVEDPADSASFFPDLVWTLRDFCLGLEIDGQLVTPDEYLENSLRPKQGSDQRVQNFNLPRLCIQKFFPKKKCFIFDLPAHQKKLAQLETLPDDELEPEFVQQVTEFCSYIFSHSMTKTLPGGIMVNGSRLKNLVLTYVNAISSGDLPCIENAVLALAQRENSAAVQKAIAHYDQQMGQKVQLPMETLQELLDLHRTSEREAIEVFMKNSFKDVDQSFQKELETLLDAKQNDICKRNLEASSDYCSALLKDIFGPLEEAVKQGIYSKPGGHNLFIQKTEELKAKYYREPRKGIQAEEVLQKYLKSKESVSHAILQTDQALTETEKKKKEAQVKAEAEKAEAQRLAAIQRQNEQMMQERERLHQEQVRQMEIAKQNWLAEQQKMQEQQMQEQAAQLSTTFQAQNRSLLSELQHAQRTVNNDDPCVLL [GBP5]”, the percent infected (BHK/HA-Zeo (control)) came out at 96.8% and the percent infected (BHK/NZAP-Zeo (ZAP)) is 84.7%.

Turning to “MSKAFGLLRQICQSILAESSQSPADLEEKKEEDSNMKREQPRERPRAWDYPHGLVGLHNIGQTCCLNSLIQVFVMNVDFTRILKRITVPRGADEQRRSVPFQMLLLLEKMQDSRQKAVRPLELAYCLQKCNVPLFVQHDAAQLYLKLWNLIKDQITDVHLVERLQALYTIRVKDSLICVDCAMESSRNSSMLTLPLSLFDVDSKPLKTLEDALHCFFQPRELSSKSKCFCENCGKKTRGKQVLKLTHLPQTLTIHLMRFSIRNSQTRKICHSLYFPQSLDFSQILPMKRESCDAEEQSGGQYELFAVIAHVGMADSGHYCVYIRNAVDGKWFCFNDSNICLVSWEDIQCTYGNPNYHWQETAYLLVYMKMEC [USP18]”, the percent infected reads like this: (BHK/HA-Zeo (control)) 98%; (BHK/NZAP-Zeo (ZAP)) 93.7%.

As to “MLPDWKSSLILMAYIIIFLTGLPANLLALRAFVGRIRQPQPAPVHILLLSLTLADLLLLLLLPFKIIEAASNFRWYLPKVVCALTSFGFYSSIYCSTWLLAGISIERYLGVAFPVQYKLSRRPLYGVIAALVAWVMSFGHCTIVIIVQYLNTTEQVRSGNEITCYENFTDNQLDVVLPVRLELCLVLFFIPMAVTIFCYWRFVWIMLSQPLVGAQRRRRAVGLAVVTLLNFLVCFGPYNVSHLVGYHQRKSPWWRSIAVVFSSLNASLDPLLFYFSSSVVRRAFGRGLQVLRNQGSSLLGRRGKDTAEGTNEDRGVGQGEGMPSSDFTTE [FFAR2]”, the percent infected runs as follows: (BHK/HA-Zeo (control)) 98.9%; (BHK/NZAP-Zeo (ZAP)) 97.4%.

As for “MSAALFSLDGPARGAPWPAEPAPFYEPGRAGKPGRGAEPGALGEPGAAAPAMYDDESAIDFSAYIDSMAAVPTLELCHDELFADLFNSNHKAGGAGPLELLPGGPARPLGPGPAAPRLLKREPDWGDGDAPGSLLPAQVAACAQTVVSLAAAGQPTPPTSPEPPRSSPRQTPAPGPAREKSAGKRGPDRGSPEYRQRRERNNIAVRKSRDKAKRRNQEMQQKLVELSAENEKLHQRVEQLTRDLAGLRQFFKQLPSPPFLPAAGTADCR [CEBPD]”, the percent infected by setting is: (BHK/HA-Zeo (control)) 98%; (BHK/NZAP-Zeo (ZAP)) 89.9%.

With “MSSWSRQRPKSPGGIQPHVSRTLFLLLLLAASAWGVTLSPKDCQVFRSDHGSSISCQPPAEIPGYLPADTVHLAVEFFNLTHLPANLLQGASKLQELHLSSNGLESLSPEFLRPVPQLRVLDLTRNALTGLPPGLFQASATLDTLVLKENQLEVLEVSWLHGLKALGHLDLSGNRLRKLPPGLLANFTLLRTLDLGENQLETLPPDLLRGPLQLERLHLEGNKLQVLGKDLLLPQPDLRYLFLNGNKLARVAAGAFQGLRQLDMLDLSNNSLASVPEGLWASLGQPNWDMRDGFDISGNPWICDQNLSDLYRWLQAQKDKMFSQNDTRCAGPEAVKGQTLLAVAKSQ [LRG1]”, the percent infected is, setting by setting: (BHK/HA-Zeo (control)) 95.7%; (BHK/NZAP-Zeo (ZAP)) 82.6%.

On to “MEAEPPLYPMAGAAGPQGDEDLLGVPDGPEAPLDELVGAYPNYNEEEEERRYYRRKRLGVLKNVLAASAGGMLTYGVYLGLLQMQLILHYDETYREVKYGNMGLPDIDSKMLMGINVTPIAALLYTPVLIRFFGTKWMMFLAVGIYALFVSTNYWERYYTLVPSAVALGMAIVPLWASMGNYITRMAQKYHEYSHYKEQDGQGMKQRPPRGSHAPYLLVFQAIFYSFFHLSFACAQLPMIYFLNHYLYDLNHTLYNVQSCGTNSHGILSGFNKTVLRTLPRSGNLIVVESVLMAVAFLAMLLVLGLCGAAYRPTEEIDLRSVGWGNIFQLPFKHVRDYRLRHLVPFFIYSGFEVLFACTGIALGYGVCSVGLERLAYLLVAYSLGASAASLLGLLGLWLPRPVPLVAGAGVHLLLTFILFFWAPVPRVLQHSWILYVAAALWGVGSALNKTGLSTLLGILYEDKERQDFIFTIYHWWQAVAIFTVYLGSSLHMKAKLAVLLVTLVAAAVSYLRMEQKLRRGVAPRQPRIPRPQHKVRGYRYLEEDNSDESDAEGEHGDGAEEEAPPAGPRPGPEPAGLGRRPCPYEQAQGGDGPEEQ [UNC93B1]”, for which the percent infected is, setting by setting: (BHK/HA-Zeo (control)) 97.3%; (BHK/NZAP-Zeo (ZAP)) 96.4%.

Consider “MFLLPLPAAGRVVVRRLAVRRFGSRSLSTADMTKGLVLGIYSKEKEDDVPQFTSAGENFDKLLAGKLRETLNISGPPLKAGKTRTFYGLHQDFPSVVLVGLGKKAAGIDEQENWHEGKENIRAAVAAGCRQIQDLELSSVEVDPCGDAQAAAEGAVLGLYEYDDLKQKKKMAVSAKLYGSGDQEAWQKGVLFASGQNLARQLMETPANEMTPTRFAEIIEKNLKSASSKTEVHIRPKSWIEEQAMGSFLSVAKGSDEPPVFLEIHYKGSPNANEPPLVFVGKGITFDSGGISIKASANMDLMRADMGGAATICSAIVSAAKLNLPINIIGLAPLCENMPSGKANKPGDVVRAKNGKTIQVDNTDAEGRLILADALCYAHTFNPKVILNAATLTGAMDVALGSGATGVFTNSSWLWNKLFEASIETGDRVWRMPLFEHYTRQVVDCQLADVNNIGKYRSAGACTAAAFLKEFVTHPKWAHLDIAGVMTNKDEVPYLRKGMTGRPTRTLIEFLLRFSQDNA [LAP3]”, for which the percent infected (BHK/HA-Zeo (control)) amounted to 97.1% and the percent infected (BHK/NZAP-Zeo (ZAP)) came out at 92.3%.

On to “MEDPSEPDRLASADGGSPEEEEDGEREPLLPRIAWAHPRRGAPGSAVRLLDAAGEEGEAGDEELPLPPGDVGVSRSSSAELDRSRPAVSVTIGTSEMNAFLDDPEFADIMLRAEQAIEVGIFPERISQGSSGSYFVKDPKRKIIGVFKPKSEEPYGQLNPKWTKYVHKVCCPCCFGRGCLIPNQGYLSEAGAYLVDNKLHLSIVPKTKVVWLVSETFNYNAIDRAKSRGKKYALEKVPKVGRKFHRIGLPPKIGSFQLFVEGYKEAEYWLRKFEADPLPENIRKQFQSQFERLVILDYIIRNTDRGNDNWLVRYEKQKCEKEIDHKESKWIDDEEFLIKIAAIDNGLAFPFKHPDEWRAYPFHWAWLPQAKVPFSEEIRNLILPYISDMNFVQDLCEDLYELFKTDKGFDKATFESQMSVMRGQILNLTQALRDGKSPFQLVQIPCVIVERSQGGSQGRIVHLSNSFTQTVNCRKPFFSSW [PI4K2B]”, for which the percent infected (BHK/HA-Zeo (control)) came to 95.2%.

“MTTEQRRSLQAFQDYIRKTLDPTYILSYMAPWFREEEVQYIQAEKNNKGPMEAATLFLKFLLELQEEGWFRGFLDALDHAGYSGLYEAIESWDFKKIEKLEEYRLLLKRLQPEFKTRIIPTDIISDLSECLINQECEEILQICSTKGMMAGAEKLVECLLRSDKENWPKTLKLALEKERNKFSELWIVEKGIKDVETEDLEDKMETSDIQIFYQEDPECQNLSENSCPPSEVSDTNLYSPFKPRNYQLELALPAMKGKNTIICAPTGCGKTFVSLLICEHHLKKFPQGQKGKVVFFANQIPVYEQQKSVFSKYFERHGYRVTGISGATAENVPVEQIVENNDIIILTPQILVNNLKKGTIPSLSIFTLMIFDECHNTSKQHPYNMIMFNYLDQKLGGSSGPLPQVIGLTASVGVGDAKNTDEALDYICKLCASLDASVIATVKHNLEELEQVVYKPQKFFRKVESRISDKFKYIIAQLMRDTESLAKRICKDLENLSQIQNREFGTQKYEQWIVTVQKACMVFQMPDKDEESRICKALFLYTSHLRKYNDALIISEHARMKDALDYLKDFFSNVRAAGFDEIEQDLTQRFEEKLQELESVSRDPSNENPKLEDLCFILQEEYHLNPETITILFVKTRALVDALKNWIEGNPKLSFLKPGILTGRGKTNQNTGMTLPAQKCILDAFKASGDHNILIATSVADEGIDIAQCNLVILYEYVGNVIKMIQTRGRGRARGSKCFLLTSNAGVIEKEQINMYKEKMMNDSILRLQTWDEAVFREKILHIQTHEKFIRDSQEKPKPVPDKENKKLLCRKCKALACYTADVRVIEECHYTVLGDAFKECFVSRPHPKPKQFSSFEKRAKIFCARQNCSHDWGIHVKYKTFEIPVIKIESFVVEDIATGVQTLYSKWKDFHFEKIPFDPAEMSK [DDX58]”: the percent infected is 82% (BHK/HA-Zeo (control)) and 11.9% (BHK/NZAP-Zeo (ZAP)).

For “MTPCLESFCQRAKDCKQNIPLPFLIQDWPLSESKPQGQDFWTPQPLQAAAPSHEFQQVALHPARTRLASRPQGGRLMSSREVGLRAPRCSCGKRKR [C5orf27]”, the percent infected turned out to be 98.6% (BHK/HA-Zeo (control)) and 94.5% (BHK/NZAP-Zeo (ZAP)).

Consider “MWCIVLFSLLAWVYAEPTMYGEILSPNYPQAYPSEVEKSWDIEVPEGYGIHLYFTHLDIELSENCAYDSVQIISGDTEEGRLCGQRSSNNPHSPIVEEFQVPYNKLQVIFKSDFSNEERFTGFAAYYVATDINECTDFVDVPCSHFCNNFIGGYFCSCPPEYFLHDDMKNCGVNCSGDVFTALIGEIASPNYPKPYPENSRCEYQIRLEKGFQVVVTLRREDFDVEAADSAGNCLDSLVFVAGDRQFGPYCGHGFPGPLNIETKSNALDIIFQTDLTGQKKGWKLRYHGDPMPCPKEDTPNSVWEPAKAKYVFRDVVQITCLDGFEVVEGRVGATSFYSTCQSNGKWSNSKLKCQPVDCGIPESIENGKVEDPESTLFGSVIRYTCEEPYYYMENGGGGEYHCAGNGSWVNEVLGPELPKCVPVCGVPREPFEEKQRIIGGSDADIKNFPWQVFFDNPWAGGALINEYWVLTAAHVVEGNREPTMYVGSTSVQTSRLAKSKMLTPEHVFIHPGWKLLEVPEGRTNFDNDIALVRLKDPVKMGPTVSPICLPGTSSDYNLMDGDLGLISGWGRTEKRDRAVRLKAARLPVAPLRKCKEVKVEKPTADAEAYVFTPNMICAGGEKGMDSCKGDSGGAFAVQDPNDKTKFYAAGLVSWGPQCGTYGLYTRVKNYVDWIMKTMQENSTPRED [C1S]”, for which the percent infected was determined as 98.4% (BHK/HA-Zeo (control)) and 96.7% (BHK/NZAP-Zeo (ZAP)).

These data come from the supplement of paper PMC3353916.
